Values from PubChem BioAssay AID1159543 (Gurdon Institute, 2015).
Test: 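Which ubiquitin E2 enzymes homologous recombination repair of double-strand breaks needs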. System: human U2OS osteosarcoma cells. Knock-down reagent: siRNA pool against human genes, about 60 nM. Time to read-out: about 72 h. Conditions: Break induced by I-SceI nuclease and donor plasmids transfected 8 h after siRNA. Read-out: 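Flow cytometry of a traffic light reporter after an I-SceI break with donor: green cells as fraction of control siRNA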. Direction: HR, cell-cycle adjusted (DJF): higher = more homologous recombination repair. Rule for the call: 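Active when the DJF cell-cycle adjusted value departs from control by over 40% in either direction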.
In all, the deposit lists 44 reagents; below is a part drawn at random. 26 of them (59%) were called active. 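DJF and WP are two cell-cycle corrections; all calls are decreases, no knock-down raised recombination by 40%.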 Reagents against one gene are numbered here. Further read-outs or replicates are left out here. No sequences are given here.

Depletion of AKTIP resulted in: HR, cell-cycle adjusted (DJF) = 0.608; inactive.
After knock-down of UBE2E3 the results were HR, cell-cycle adjusted (DJF) = 0.347; active.
UBE2D2 gave HR, cell-cycle adjusted (DJF) = 0.682; inactive.
Silencing of UBE2O came out at: HR, cell-cycle adjusted (DJF) = 0.121; active.
After knock-down of BIRC6, the record shows HR, cell-cycle adjusted (DJF) = 0.419; active.
Depletion of UBE2S resulted in: HR, cell-cycle adjusted (DJF) = 1.36; inactive.
With knock-down of UBE2Q2 the results were HR, cell-cycle adjusted (DJF) = 0.482; active.
For UBE2V1, the values are HR, cell-cycle adjusted (DJF) = 0.359; active.
LIG3 #1 showed HR, cell-cycle adjusted (DJF) = 0.752; inactive.
Depletion of LIG3 #2 gave: HR, cell-cycle adjusted (DJF) = 0.901; inactive.
UBE2NL gave HR, cell-cycle adjusted (DJF) = 0.366; active.
After knock-down of UBE2J1, the screen gave HR, cell-cycle adjusted (DJF) = 0.157; active.
With knock-down of UBE2D4 the results were HR, cell-cycle adjusted (DJF) = 0.605; inactive.
Against UEVLD the deposit lists HR, cell-cycle adjusted (DJF) = 0.784; inactive.
After knock-down of UBE2G2, the record shows HR, cell-cycle adjusted (DJF) = 0.614; inactive.
After knock-down of UBE2T, the record shows HR, cell-cycle adjusted (DJF) = 0.0942; active.
Depletion of UBE2Q1 gave: HR, cell-cycle adjusted (DJF) = 0.504; active.
With knock-down of UBE2E2, the record shows HR, cell-cycle adjusted (DJF) = 0.652; inactive.
PRKDC gave HR, cell-cycle adjusted (DJF) = 1.06; inactive.
With knock-down of UBE2G1, the record shows HR, cell-cycle adjusted (DJF) = 0.507; active.
Depletion of UBE2R2 resulted in: HR, cell-cycle adjusted (DJF) = 0.151; active.
With knock-down of UBE2U the results were HR, cell-cycle adjusted (DJF) = 0.306; active.
For UBE2V2, the values are HR, cell-cycle adjusted (DJF) = 0.198; active.
UBE2L6 showed HR, cell-cycle adjusted (DJF) = 0.286; active.
